The assay deals with Bovine Serum Albumin (bovine) (UniProt P02769). The experiment in a line: graphene field-effect transistor (gFET) with enzymatic read-out (urea hydrolysis); streptavidin (or BSA as control) attached to the gFET surface; incubated with b-urease 5-360 nM for 13 min, washed; slope of IDS vs time after 1 mM urea (VDS 50 mV, VGS -250 mV, 0.1 mM HEPES, 10 mM KCl, pH 6); Hill-like fit; operational constant; both purified.

By UniProt entry, the sequences of proteins in these tests, tags left out. Residues count along the entry.
UniProt P02769, residues 25-607: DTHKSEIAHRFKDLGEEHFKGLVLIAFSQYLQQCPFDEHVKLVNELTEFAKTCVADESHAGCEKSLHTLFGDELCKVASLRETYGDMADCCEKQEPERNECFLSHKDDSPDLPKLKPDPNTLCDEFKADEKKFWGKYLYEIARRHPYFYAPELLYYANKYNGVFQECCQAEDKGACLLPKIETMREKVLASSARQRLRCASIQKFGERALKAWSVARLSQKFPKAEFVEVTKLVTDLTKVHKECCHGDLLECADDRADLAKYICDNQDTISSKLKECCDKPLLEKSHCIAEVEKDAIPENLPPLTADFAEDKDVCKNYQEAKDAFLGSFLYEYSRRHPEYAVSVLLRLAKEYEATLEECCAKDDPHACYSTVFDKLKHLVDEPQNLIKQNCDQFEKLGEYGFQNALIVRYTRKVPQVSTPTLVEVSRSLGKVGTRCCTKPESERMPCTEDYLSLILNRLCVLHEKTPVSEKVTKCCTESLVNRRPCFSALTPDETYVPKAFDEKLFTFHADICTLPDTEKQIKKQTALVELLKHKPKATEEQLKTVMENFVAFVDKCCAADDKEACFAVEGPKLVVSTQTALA

From article PMC11352759 come the findings set out here.

Results are given in words; binding and its absence hold for the method and conditions named.

Take “biotinylated urease (from UniProt P07374 1-840) (enzyme)”: the binding entry is “no binding”.
